{
  "source": "the supplement of paper PMC10338343",
  "note": "± gives the standard deviation. This is a selection; strong and weak results do not stand in their true shares. Many entries were measured with a wide error.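 Note: 1 nM active piRISC with 0.1 nM target library at 33 °C single turnover.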",
  "data": [
    {"tested_on": "MIWI (PIWIL1) piRISC loaded with L1MC piRNA (30 nt)", "experiment": "pre-steady-state target cleavage rate (min^-1); higher = faster piRNA-guided slicing of the target", "conditions": "guide: L1MC piRNA 5'p-UAACUAAAUACUAUGCAAGCUGUAGGUCCU; auxiliary factor: 500 nM mouse GTSF1", "how_it_was_run": "(§1)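 For Cleave-'n-Seq, a transcribed, DNA-blocked target RNA library […] met 1 nM active affinity-purified piRISC with one synthetic guide at 33 °C for 0–8 or 0–960 min in HEPES–potassium acetate buffer, with or without 500 nM GTSF1 partner protein. Uncleaved targets were sequenced and normalised to depth and weakly complementary targets, with three trials pooled and k3 capped at 0.0001 min^-1. A burst-and-steady-state fit supplied the pre-steady-state cleavage rate.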", "values": [
      {"sequence": "AGGUCCUUCAGCUUGCAUAGUAUUUAGUUA", "pre-steady-state target cleavage rate": "1.42 ± 0.05"},
      {"sequence": "UCCUGGAUGUCGAACCUUAGAAUUUAGUUA", "pre-steady-state target cleavage rate": "0.000303 ± 0.013"},
      {"sequence": "UGGACCUACAGCGUGCAUAGUAUUUAGUUA", "pre-steady-state target cleavage rate": "1.43 ± 0.065"}
    ]},
    {"tested_on": "MIWI (PIWIL1) piRISC loaded with L1MC piRNA (30 nt)", "experiment": "pre-steady-state target cleavage rate (min^-1); MIWI and MILI are mouse PIWI proteins and EfPiwi is from a freshwater sponge; tags in brackets are library labels; higher = faster piRNA-guided slicing of the target", "conditions": "guide: L1MC piRNA 5'p-UAACUAAAUACUAUGCAAGCUGUAGGUCCU; auxiliary factor: none (no GTSF1)", "how_it_was_run": "as §1", "values": [
      {"sequence": "UCCUGGAUGUCGAACGAUACUUUUUAGUUA", "pre-steady-state target cleavage rate": "0.000195 ± 0.026"},
      {"sequence": "UGGACCUACAGCUUGCUAAGUAUUUACAAA", "pre-steady-state target cleavage rate": "0.000916 ± 0.0061"},
      {"sequence": "UCGACCUACAGCUUGCAUAGUAUUUGUUA", "pre-steady-state target cleavage rate": "0.00278 ± 0.0036"},
      {"sequence": "UGGACCUACAGCUUGGUAAGUAUUUACAAA", "pre-steady-state target cleavage rate": "0.000469 ± 0.011"},
      {"sequence": "AGGACCUACAGCUUGCAUAGUAAAAAGUAA", "pre-steady-state target cleavage rate": "0.00149 ± 0.0052"},
      {"sequence": "AGGACCUACAGCUUGCUAAGUAUUUAGAAA", "pre-steady-state target cleavage rate": "0.00087 ± 0.0072"},
      {"sequence": "AGGACCUACAGCUUGCAUUCUAUUUACAAA", "pre-steady-state target cleavage rate": "0.000818 ± 0.0095"},
      {"sequence": "AGGACCUACAGCUUGCAUACAUUUUAGUUA", "pre-steady-state target cleavage rate": "0.00126 ± 0.0054"},
      {"sequence": "UCCACCUACAGCUUGCAUUCAUAAAUCAAA [g13:g27:cont:t1A]", "pre-steady-state target cleavage rate": "0.000277 ± 0.014"},
      {"sequence": "AGGACCUACAGCUUGCAAUCAUAAAUCAAA [g14:g30:cont:t1A]", "pre-steady-state target cleavage rate": "0.000459 ± 0.018"},
      {"sequence": "UCCUGGAACAGCUUGCAUAGUAAAAUCAAA [g9:g23:cont:t1A]", "pre-steady-state target cleavage rate": "0.00135 ± 0.0055"},
      {"sequence": "AGGACCUACAGCUAGCAUAGUAUUUACAAA", "pre-steady-state target cleavage rate": "0.00318 ± 0.0041"},
      {"sequence": "UCCUGGAUGUCGUUGCAGUAGUAUUUAGUUA", "pre-steady-state target cleavage rate": "0.000792 ± 0.01"},
      {"sequence": "UCCUGGAUGUCGUUGCAAAGUAUUUAGAUA", "pre-steady-state target cleavage rate": "0.000754 ± 0.0079"},
      {"sequence": "UCGACCUACAGGAAGCAUAGUAUUUACAAA", "pre-steady-state target cleavage rate": "0.000657 ± 0.0088"},
      {"sequence": "AGGACCUACAGCUUGCAGUAGUAUUUAGUUA", "pre-steady-state target cleavage rate": "0.000741 ± 0.013"},
      {"sequence": "UCGACCUACAGCUUGCAUAGUUAAAUCAAA [g10:g28:cont:t1A]", "pre-steady-state target cleavage rate": "0.000905 ± 0.0089"},
      {"sequence": "UCCUGGAUCAGCUUGCAAUCUAUUUUCAAA", "pre-steady-state target cleavage rate": "0.0002 ± 0.015"},
      {"sequence": "UCCUGGAUGUCGAACCAUAGUAAAAAGUUA", "pre-steady-state target cleavage rate": "0.000222 ± 0.031"},
      {"sequence": "AGGACCUACAGCUUCGUUAGUAUUUACAAA", "pre-steady-state target cleavage rate": "0.000612 ± 0.0097"},
      {"sequence": "UCGACCUACAGCUUGCAUAGUAAAAACAAA", "pre-steady-state target cleavage rate": "0.00024 ± 0.018"},
      {"sequence": "UCCACCUACAGCUUGCAUAGUAUUAAGAAA", "pre-steady-state target cleavage rate": "0.00164 ± 0.0047"},
      {"sequence": "AGCACCUACAGCUUGCAUAGUAUUUACAAA", "pre-steady-state target cleavage rate": "0.00384 ± 0.0041"},
      {"sequence": "UCGACCUACAGCUUCGUUAGUAUUUUCAAA", "pre-steady-state target cleavage rate": "0.000215 ± 0.013"},
      {"sequence": "AGGACCUACAGCUUGCUAAGUAUUUAGUAA", "pre-steady-state target cleavage rate": "0.00204 ± 0.0038"},
      {"sequence": "UCGACCUACAGCAUGCAUAGUAUUUUCAAA", "pre-steady-state target cleavage rate": "0.001 ± 0.0074"},
      {"sequence": "UCCACCUACUCCUUGCAUAGUAUUUUCAAA", "pre-steady-state target cleavage rate": "0.00155 ± 0.0018"},
      {"sequence": "UGGACCUACAGCAAGCAUAGUAUUUUCAAA", "pre-steady-state target cleavage rate": "0.00052 ± 0.0074"},
      {"sequence": "UCGACCUACAGCUUGCAUACAUUUUAGAAA", "pre-steady-state target cleavage rate": "0.000823 ± 0.0092"},
      {"sequence": "UCCACCUACAGCUUGGAUAGUAUUUACAAA", "pre-steady-state target cleavage rate": "0.00139 ± 0.0028"},
      {"sequence": "UCGACCUACAGCAUGCAUAGUAUUUACAAA", "pre-steady-state target cleavage rate": "0.00232 ± 0.003"},
      {"sequence": "UCCUGGAUCAGCUUCGUUAGUAUUUAGUUA", "pre-steady-state target cleavage rate": "0.0018 ± 0.0046"},
      {"sequence": "UGGACCUACAGCUUCCAUAGUAAUUAGUUA", "pre-steady-state target cleavage rate": "0.00161 ± 0.0031"},
      {"sequence": "UGGACCUACAGCUUGCAUAGUAUUAUGAAA", "pre-steady-state target cleavage rate": "0.00217 ± 0.0034"},
      {"sequence": "UCCUCCUACAGCAACCAUAGUAUUUAGUUA", "pre-steady-state target cleavage rate": "0.00144 ± 0.0035"},
      {"sequence": "UCCACCUACUCCUUGCAUAGUAUUUACAAA", "pre-steady-state target cleavage rate": "0.002 ± 0.0026"}
    ]}
  ]
}
